Test results taken from the supplement of paper PMC6411743.
± gives the standard deviation of the averaged measurements. Only a part is listed here, and it is no random draw. Most entries show no effect beyond the scatter of the controls.

Sequences of proteins named here, by UniProt entry; tags and fusion partners are left off. A change or cut given only in a name is not applied to a line headed by its entry.
UniProt Q15942: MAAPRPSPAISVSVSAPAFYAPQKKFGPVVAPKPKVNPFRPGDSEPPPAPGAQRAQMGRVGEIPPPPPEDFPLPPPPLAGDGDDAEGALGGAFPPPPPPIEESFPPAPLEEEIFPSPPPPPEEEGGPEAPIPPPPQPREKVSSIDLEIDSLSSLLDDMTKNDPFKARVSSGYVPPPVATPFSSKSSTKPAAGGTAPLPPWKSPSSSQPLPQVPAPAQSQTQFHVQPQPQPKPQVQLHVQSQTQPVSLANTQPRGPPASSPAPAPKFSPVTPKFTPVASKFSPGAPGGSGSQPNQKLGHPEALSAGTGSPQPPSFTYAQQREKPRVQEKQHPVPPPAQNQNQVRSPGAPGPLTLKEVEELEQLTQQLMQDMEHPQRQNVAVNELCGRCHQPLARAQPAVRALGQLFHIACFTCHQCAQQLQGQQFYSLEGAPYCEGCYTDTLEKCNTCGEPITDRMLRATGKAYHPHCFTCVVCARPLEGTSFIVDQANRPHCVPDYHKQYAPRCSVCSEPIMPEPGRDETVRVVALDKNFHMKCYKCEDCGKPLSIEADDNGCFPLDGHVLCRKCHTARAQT
UniProt Q5T011: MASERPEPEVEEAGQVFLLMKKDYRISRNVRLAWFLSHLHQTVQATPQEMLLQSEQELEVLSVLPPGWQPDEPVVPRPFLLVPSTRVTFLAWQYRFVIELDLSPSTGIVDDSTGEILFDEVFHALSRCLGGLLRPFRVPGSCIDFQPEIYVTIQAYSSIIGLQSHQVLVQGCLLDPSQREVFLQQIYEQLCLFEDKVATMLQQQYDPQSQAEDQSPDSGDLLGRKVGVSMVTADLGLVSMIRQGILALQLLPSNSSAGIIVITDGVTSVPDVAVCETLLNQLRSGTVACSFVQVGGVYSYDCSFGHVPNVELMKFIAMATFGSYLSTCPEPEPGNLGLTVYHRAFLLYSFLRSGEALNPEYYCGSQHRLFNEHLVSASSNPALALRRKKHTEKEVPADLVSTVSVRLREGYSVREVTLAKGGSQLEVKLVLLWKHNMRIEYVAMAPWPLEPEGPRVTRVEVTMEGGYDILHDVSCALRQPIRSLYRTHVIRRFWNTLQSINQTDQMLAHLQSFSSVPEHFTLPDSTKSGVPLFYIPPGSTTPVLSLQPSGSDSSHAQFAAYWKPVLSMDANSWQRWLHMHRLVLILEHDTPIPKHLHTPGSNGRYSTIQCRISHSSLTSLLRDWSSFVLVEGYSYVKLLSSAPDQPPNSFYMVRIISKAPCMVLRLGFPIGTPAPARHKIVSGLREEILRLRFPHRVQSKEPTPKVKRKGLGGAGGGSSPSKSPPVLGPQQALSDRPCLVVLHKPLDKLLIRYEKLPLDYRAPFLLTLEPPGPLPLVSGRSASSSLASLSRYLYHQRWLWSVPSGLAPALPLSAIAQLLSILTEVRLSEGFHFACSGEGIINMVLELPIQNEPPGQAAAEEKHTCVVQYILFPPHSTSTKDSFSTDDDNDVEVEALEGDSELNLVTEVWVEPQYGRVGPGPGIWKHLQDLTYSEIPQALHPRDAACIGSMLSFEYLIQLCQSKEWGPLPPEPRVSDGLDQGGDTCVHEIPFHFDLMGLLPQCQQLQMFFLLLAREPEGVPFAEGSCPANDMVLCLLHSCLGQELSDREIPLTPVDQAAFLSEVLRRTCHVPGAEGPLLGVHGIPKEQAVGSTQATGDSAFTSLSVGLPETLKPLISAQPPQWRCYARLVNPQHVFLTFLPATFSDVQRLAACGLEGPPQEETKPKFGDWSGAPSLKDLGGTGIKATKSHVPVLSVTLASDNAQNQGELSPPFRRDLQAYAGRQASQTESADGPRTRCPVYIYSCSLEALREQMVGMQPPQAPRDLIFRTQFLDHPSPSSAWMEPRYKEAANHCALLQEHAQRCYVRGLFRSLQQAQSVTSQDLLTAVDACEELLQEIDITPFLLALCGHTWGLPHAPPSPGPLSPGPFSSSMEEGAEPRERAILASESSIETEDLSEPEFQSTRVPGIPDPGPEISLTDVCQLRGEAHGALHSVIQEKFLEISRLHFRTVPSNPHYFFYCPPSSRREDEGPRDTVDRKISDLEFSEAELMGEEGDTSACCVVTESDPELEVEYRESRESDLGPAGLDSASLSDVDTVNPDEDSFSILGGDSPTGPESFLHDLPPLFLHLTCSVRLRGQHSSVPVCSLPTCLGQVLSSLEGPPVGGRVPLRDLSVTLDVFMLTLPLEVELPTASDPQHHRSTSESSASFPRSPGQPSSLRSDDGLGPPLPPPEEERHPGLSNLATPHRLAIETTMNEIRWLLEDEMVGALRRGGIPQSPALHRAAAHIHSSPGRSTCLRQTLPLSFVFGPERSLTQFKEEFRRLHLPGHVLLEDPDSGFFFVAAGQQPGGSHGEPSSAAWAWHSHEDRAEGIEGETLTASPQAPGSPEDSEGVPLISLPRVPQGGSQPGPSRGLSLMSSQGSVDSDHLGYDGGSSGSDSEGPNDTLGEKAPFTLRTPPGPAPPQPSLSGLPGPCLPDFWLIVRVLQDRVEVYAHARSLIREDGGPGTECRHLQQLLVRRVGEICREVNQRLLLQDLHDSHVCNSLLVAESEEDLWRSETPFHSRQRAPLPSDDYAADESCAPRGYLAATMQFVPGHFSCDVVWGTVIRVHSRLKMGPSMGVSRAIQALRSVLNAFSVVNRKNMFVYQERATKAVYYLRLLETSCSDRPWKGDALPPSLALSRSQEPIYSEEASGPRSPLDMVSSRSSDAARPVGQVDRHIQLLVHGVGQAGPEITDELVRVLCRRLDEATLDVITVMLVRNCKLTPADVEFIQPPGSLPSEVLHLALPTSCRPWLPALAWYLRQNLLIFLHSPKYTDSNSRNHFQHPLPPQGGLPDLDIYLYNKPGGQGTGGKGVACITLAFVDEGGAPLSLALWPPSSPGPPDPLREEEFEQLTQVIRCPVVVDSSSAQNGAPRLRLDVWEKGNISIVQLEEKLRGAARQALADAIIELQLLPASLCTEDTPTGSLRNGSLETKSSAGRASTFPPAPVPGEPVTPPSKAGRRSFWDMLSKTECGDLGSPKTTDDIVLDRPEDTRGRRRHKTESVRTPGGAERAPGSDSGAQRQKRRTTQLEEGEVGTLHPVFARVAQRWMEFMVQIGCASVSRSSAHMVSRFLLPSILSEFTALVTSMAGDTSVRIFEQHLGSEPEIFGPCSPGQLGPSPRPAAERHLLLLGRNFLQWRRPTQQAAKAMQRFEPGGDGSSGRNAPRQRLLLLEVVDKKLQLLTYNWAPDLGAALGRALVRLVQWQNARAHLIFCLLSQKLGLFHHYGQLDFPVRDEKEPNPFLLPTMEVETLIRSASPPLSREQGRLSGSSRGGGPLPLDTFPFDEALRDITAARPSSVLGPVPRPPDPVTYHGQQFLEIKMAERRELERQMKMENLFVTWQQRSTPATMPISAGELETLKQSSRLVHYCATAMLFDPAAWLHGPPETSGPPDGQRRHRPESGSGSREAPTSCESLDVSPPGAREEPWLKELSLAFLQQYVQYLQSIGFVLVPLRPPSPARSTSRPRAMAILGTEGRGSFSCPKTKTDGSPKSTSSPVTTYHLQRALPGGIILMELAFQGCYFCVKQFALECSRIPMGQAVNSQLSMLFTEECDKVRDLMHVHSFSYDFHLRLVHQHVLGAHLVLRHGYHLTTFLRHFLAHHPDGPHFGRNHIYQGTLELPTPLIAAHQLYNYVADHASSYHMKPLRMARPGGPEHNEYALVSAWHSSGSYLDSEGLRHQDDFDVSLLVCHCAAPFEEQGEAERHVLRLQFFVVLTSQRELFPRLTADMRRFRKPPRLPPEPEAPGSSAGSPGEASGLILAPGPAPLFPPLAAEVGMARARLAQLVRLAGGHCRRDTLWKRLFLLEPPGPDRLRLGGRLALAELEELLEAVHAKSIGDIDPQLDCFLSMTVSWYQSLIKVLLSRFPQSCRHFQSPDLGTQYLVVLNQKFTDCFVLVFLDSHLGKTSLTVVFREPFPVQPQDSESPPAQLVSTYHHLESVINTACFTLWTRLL
UniProt Q5T1M5: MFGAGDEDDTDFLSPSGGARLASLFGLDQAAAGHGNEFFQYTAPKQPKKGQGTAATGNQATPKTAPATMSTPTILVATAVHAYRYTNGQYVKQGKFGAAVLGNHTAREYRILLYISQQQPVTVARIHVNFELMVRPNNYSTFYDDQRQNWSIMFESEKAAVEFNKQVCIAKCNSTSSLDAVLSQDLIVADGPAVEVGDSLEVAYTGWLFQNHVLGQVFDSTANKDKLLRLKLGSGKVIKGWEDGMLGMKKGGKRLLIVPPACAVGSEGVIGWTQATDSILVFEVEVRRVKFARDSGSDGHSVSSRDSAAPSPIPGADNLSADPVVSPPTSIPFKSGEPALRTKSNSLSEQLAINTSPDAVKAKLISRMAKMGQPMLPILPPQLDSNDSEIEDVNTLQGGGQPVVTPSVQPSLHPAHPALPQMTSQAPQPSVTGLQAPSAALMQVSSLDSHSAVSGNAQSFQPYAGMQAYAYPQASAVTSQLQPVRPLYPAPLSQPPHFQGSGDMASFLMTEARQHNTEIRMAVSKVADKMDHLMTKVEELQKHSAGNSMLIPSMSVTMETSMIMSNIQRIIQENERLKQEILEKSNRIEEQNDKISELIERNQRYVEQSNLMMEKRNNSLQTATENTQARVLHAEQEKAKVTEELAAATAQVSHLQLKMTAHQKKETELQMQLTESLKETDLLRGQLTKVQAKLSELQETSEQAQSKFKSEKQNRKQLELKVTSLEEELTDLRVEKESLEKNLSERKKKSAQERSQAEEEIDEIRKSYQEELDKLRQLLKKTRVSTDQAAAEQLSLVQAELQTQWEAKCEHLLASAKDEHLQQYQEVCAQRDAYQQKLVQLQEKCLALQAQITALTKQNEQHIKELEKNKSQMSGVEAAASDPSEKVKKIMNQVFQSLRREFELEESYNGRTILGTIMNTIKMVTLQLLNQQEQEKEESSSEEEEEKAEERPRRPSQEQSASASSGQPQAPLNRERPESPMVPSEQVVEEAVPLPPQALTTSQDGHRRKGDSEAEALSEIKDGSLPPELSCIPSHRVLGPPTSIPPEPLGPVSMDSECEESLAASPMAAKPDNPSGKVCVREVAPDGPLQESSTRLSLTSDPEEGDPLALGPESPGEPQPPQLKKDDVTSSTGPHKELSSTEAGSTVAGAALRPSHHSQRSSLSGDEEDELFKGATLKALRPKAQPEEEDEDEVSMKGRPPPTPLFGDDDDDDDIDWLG
UniProt Q5SQI0: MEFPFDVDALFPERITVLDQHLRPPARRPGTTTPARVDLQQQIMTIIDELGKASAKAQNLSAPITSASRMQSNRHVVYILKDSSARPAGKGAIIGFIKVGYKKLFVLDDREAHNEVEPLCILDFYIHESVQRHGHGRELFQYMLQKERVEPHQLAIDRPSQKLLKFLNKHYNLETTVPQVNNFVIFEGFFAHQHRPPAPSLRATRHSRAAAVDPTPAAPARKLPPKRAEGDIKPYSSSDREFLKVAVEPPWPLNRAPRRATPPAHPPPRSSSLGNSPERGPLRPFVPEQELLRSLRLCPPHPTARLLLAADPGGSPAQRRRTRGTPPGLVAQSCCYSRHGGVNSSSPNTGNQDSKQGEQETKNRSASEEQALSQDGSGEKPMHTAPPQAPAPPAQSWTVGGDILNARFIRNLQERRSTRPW
UniProt Q3ZCW2: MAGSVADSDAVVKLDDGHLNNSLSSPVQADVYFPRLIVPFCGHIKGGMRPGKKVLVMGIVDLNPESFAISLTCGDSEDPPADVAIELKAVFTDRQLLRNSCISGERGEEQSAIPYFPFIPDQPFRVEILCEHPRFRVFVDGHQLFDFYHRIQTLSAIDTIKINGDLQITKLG
UniProt Q16659, whole entry: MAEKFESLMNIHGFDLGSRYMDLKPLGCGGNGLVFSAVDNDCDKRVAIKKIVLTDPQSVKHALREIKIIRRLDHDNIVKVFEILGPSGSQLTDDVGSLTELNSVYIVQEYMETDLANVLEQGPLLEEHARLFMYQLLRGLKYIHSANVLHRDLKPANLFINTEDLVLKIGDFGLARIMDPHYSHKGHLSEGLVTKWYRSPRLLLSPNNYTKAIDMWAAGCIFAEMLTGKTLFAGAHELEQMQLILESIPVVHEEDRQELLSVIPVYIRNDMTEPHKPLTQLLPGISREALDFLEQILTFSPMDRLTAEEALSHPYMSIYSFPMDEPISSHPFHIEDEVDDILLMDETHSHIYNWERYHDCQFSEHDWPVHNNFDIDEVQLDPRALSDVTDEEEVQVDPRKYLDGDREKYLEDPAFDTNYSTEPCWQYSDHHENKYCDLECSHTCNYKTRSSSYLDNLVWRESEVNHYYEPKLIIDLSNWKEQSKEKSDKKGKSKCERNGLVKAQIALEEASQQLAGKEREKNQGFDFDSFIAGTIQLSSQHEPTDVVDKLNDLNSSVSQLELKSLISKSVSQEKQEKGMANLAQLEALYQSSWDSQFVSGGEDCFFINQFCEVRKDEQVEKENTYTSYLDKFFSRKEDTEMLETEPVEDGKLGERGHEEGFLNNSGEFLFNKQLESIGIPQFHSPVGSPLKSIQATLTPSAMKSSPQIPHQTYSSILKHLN

These targets were tested with Nc1ncnc2c1ncn2[C@@H]1O[C@H](COP(=O)(O)OP(=O)(O)NP(=O)(O)O)[C@@H](O)[C@H]1O [adenylyl imidodiphosphate] (assay: NP40-soluble protein abundance relative to vehicle (solubility fold change) (ratio); higher = more soluble protein in presence of AMP-PNP). Settings: concentration: 0.5mM.
In short: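 Eight concentrations, 0.1 to 10 mM, were tested on Jurkat crude lysate for 10 min at room temperature and then 3 min at 37 °C, in three independent experiments. The lysate was solubilised with 0.8% NP40 and benzonase, ultracentrifuged, and the supernatant TMT-labelled for LC-MS/MS. Each value is the fold change against the detergent-processed vehicle in its own replicate, from vsn-normalised intensities.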

| Target | NP40-soluble protein abundance |
| --- | --- |
| BEND3 (UniProt Q5T5X7) | 0.998 ± 0.041 |
| UniProt Q5JWR5 and related entries | 1.01 ± 0.027 |
| UniProt Q16864 and related entries | 1.05 ± 0.054 |
| ZYX (UniProt Q15942) | 1 ± 0.039 |
| HERC1 (UniProt Q15751) | 0.954 ± 0.017 |
| UniProt Q5T011 and related entries | 0.792 ± 0.046 |
| UniProt Q3MHD2 and related entries | 1.06 ± 0.082 |
| UniProt Q5T1M5 and related entries | 0.993 ± 0.026 |
| UniProt Q16656 and related entries | 1 ± 0.05 |
| UniProt Q5SQI0 and related entries | 0.9995 ± 0.0094 |
| RCN1 (UniProt Q15293) | 1.02 ± 0.014 |
| Q5QPA5 and related entries (UniProt Q9NVS2) | 1.03 ± 0.052 |
| UniProt Q4G0N4 | 0.964 ± 0.038 |
| UniProt Q15542 and related entries | 1.02 ± 0.02 |
| UniProt Q5JTD0 and related entries | 1 ± 0.027 |
| RIF1 (UniProt Q5UIP0) | 0.993 ± 0.038 |
| UniProt Q5PSV4 and related entries | 0.99819 ± 0.00018 |
| LGALSL (UniProt Q3ZCW2) | 1.01 ± 0.022 |
| UniProt Q5GLZ8 and related entries | 0.997 ± 0.071 |
| UniProt Q5MIZ7 and related entries | 1 ± 0.044 |
| UniProt Q16659 | 1.01 ± 0.015 |
| HSP90AB4P (UniProt Q58FF6) | 1.04 ± 0.065 |
| UniProt Q16555 and related entries | 1.007 ± 0.0085 |
| UniProt Q16531 and related entries | 0.985 ± 0.11 |
| UniProt Q16512 and related entries | 1.03 ± 0.05 |

Two entries from above, set out differently:
Target | NP40-soluble protein abundance
UniProt Q5T011 and related entries | 0.792 ± 0.046
UniProt Q3MHD2 and related entries | 1.06 ± 0.082
